Record: PubChem BioAssay AID652272 (Drosophila RNAi Screening Center, 2013)
In all, the deposit lists about 21,000 reagents; shown is an unselected part of those that have a named target and a result. Over the whole deposit, 503 (2.4%) got an active call. 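Raw plate light values, not normalised; calls rest on replicate z-scores that were not deposited; hits include reporter decreases as well as increases.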 Entries without a mark were called inactive. The numbers tell different reagents against one gene apart. Names joined by + are all predicted targets of the reagent. Not stated in the record: the amount of reagent, the time to read-out.

Screen: 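Finding fly genes that regulate Hedgehog signal transduction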 (primary screen)
Cell system: Drosophila clone 8 (Cl8) cells
Reagents: long dsRNA against Drosophila genes
Read-out: 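Firefly light from a Hedgehog-responsive ptc promoter reporter and Renilla reference light, both read on a plate reader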
Reading the numbers: firefly Hh reporter signal: higher = more ptc reporter light; Renilla reference signal: higher = more Renilla control light
Rule for the call: 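Called a hit if the two-replicate mean z-score lies below -2 or above +3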
Calls: active = hit: reporter lowered or raised; inactive = not a hit

Target gene | reagent no. | firefly Hh reporter signal, replicate 1 | firefly Hh reporter signal, replicate 2 | Renilla reference signal, replicate 1 | Renilla reference signal, replicate 2
Cortactin | 1 | 1.48e5 | 88944 | 6192 | 3851
CG34234 + Dh44-R2 | 1 | 71472 | 58192 | 3069 | 2312
Elp5 (Elongator complex protein 5) | 1 | 77110 | 39430 | 2228 | 2454
Targ1 (Terminal ADP-ribose protein glycohydrolase 1) | 1 | 70848 | 1.21e5 | 1680 | 3532
PPP1R15 (Protein phosphatase 1 regulatory subunit 15) | 1 | 64413 | 66278 | 2477 | 2497
Taf12L (TBP-associated factor 30kD subunit alpha-2) | 1 | 1.17e5 | 1.03e5 | 2400 | 7665
Lcp4 (Larval cuticle protein 4) | 1 | 1.05e5 | 62646 | 2711 | 4935
CG9289 | 1 | 85883 | 46224 | 2213 | 4434
CG32719 | 1 | 6.00e5 | 2.11e5 | 28320 | 5223
CG15773 | 1 | 1.03e5 | 3.01e5 | 3878 | 10452
CG10912 | 1 | 1.30e5 | 1.03e5 | 6155 | 4578
CG4511 | 1 | 65287 | 1.26e5 | 2119 | 3984
Atg18b (Autophagy-related 18b) | 1 | 1.01e5 | 62732 | 4067 | 2433
CG15256 | 1 | 1.90e5 | 3.65e5 | 5400 | 17722
CG15256 | 2 | 74635 | 57785 | 2045 | 4309
Obp58d (Odorant-binding protein 58d) | 1 | 78138 | 54770 | 2042 | 4797
CG14196 | 1 | 68744 | 1.81e5 | 1840 | 6819
viaf (viral IAP-associated factor) | 1 | 1.22e5 | 55941 | 4714 | 2380
Osbp (Oxysterol binding protein) | 1 | 89729 | 86036 | 3696 | 3304
CG42726 + CG42727 | 1 | 56854 | 1.03e5 | 2464 | 3897
mthl11 (methuselah-like 11) | 1 | 2.21e5 | – | 3697 | –
CG8945 | 1 | 72346 | 2.73e5 | 1617 | 10788
CG8945 | 2 | 69000 | 1.94e5 | 2170 | 8884

Sorted by “Renilla reference signal, replicate 1” (high to low): some entries from above.
Target gene | reagent no. | firefly Hh reporter signal, replicate 1 | firefly Hh reporter signal, replicate 2 | Renilla reference signal, replicate 1 | Renilla reference signal, replicate 2
CG10912 | 1 | 1.30e5 | 1.03e5 | 6155 | 4578
CG15773 | 1 | 1.03e5 | 3.01e5 | 3878 | 10452
